According to the supplement of paper PMC10849652:
This is one part of the list. Residues, ends and D or L forms follow the SMILES beside them. *: point of attachment. Cbz = O=C(OCc1ccccc1)*

Protein sequences, listed by entry. Tags and fused reporters are not part of them. Lines headed by an entry give the natural chain unless they say otherwise; changes in a name come on top.
UniProt Q6PJI9: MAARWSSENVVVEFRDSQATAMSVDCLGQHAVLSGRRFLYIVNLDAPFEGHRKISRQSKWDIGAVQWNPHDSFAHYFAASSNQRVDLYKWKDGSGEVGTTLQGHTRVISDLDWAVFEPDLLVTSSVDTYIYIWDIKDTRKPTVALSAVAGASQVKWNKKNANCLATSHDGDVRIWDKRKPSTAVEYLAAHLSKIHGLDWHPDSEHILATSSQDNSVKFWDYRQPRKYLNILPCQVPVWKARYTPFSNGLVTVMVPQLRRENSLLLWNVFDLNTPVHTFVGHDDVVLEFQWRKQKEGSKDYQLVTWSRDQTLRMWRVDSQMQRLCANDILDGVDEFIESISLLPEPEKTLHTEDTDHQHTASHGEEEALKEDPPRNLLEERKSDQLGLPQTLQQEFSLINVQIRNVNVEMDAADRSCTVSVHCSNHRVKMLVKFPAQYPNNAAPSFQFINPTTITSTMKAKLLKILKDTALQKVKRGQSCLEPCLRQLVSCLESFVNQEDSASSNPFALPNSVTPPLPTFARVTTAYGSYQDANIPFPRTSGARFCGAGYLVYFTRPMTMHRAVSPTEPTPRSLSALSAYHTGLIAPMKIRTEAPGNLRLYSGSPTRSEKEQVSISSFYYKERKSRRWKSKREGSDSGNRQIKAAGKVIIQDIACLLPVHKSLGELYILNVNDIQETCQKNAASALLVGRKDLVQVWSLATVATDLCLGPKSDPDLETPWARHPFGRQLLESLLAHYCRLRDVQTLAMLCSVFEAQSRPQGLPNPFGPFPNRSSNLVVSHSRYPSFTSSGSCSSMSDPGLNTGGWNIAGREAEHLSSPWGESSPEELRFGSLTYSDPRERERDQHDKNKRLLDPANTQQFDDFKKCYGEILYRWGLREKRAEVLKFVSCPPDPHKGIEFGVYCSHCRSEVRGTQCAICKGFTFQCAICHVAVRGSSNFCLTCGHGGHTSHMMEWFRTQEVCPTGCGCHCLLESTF
UniProt Q96FK6: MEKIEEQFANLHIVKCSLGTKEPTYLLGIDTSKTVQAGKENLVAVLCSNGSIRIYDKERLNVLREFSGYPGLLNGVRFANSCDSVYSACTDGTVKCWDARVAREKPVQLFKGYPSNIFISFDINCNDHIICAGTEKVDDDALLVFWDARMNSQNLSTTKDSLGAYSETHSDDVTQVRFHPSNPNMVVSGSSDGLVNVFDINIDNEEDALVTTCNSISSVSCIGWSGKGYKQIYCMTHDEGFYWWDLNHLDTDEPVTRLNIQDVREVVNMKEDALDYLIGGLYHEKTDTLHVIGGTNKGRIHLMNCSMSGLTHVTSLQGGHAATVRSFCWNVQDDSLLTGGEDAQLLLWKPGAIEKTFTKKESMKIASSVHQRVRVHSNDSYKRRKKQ
UniProt O75717: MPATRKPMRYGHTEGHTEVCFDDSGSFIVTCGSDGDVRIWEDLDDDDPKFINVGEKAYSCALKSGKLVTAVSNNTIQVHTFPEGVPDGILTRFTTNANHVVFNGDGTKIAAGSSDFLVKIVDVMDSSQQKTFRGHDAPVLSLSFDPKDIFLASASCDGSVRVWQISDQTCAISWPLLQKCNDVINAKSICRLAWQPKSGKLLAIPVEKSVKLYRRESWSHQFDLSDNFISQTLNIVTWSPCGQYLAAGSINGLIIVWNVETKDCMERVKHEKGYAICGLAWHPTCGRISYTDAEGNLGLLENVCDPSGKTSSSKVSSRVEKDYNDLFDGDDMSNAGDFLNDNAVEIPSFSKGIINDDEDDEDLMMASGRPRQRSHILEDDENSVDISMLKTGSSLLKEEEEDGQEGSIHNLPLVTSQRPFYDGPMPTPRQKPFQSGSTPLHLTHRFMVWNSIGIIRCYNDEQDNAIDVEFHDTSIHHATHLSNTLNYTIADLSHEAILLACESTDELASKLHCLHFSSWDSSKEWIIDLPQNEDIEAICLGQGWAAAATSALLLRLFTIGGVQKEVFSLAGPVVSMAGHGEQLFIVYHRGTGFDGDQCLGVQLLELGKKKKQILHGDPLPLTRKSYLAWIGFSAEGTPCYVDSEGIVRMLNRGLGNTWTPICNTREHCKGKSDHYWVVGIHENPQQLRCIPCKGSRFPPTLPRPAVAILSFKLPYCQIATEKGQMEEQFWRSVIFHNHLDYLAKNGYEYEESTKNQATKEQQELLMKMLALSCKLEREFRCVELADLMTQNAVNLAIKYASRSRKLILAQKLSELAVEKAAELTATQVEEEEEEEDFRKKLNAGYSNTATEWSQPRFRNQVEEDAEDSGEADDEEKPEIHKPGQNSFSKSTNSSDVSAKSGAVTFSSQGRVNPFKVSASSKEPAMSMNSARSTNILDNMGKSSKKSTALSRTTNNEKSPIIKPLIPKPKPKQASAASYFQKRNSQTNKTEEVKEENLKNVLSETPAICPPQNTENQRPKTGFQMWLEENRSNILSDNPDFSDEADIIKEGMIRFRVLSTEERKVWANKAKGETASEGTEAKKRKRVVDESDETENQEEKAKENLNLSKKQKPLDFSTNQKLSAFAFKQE
UniProt Q9NP79: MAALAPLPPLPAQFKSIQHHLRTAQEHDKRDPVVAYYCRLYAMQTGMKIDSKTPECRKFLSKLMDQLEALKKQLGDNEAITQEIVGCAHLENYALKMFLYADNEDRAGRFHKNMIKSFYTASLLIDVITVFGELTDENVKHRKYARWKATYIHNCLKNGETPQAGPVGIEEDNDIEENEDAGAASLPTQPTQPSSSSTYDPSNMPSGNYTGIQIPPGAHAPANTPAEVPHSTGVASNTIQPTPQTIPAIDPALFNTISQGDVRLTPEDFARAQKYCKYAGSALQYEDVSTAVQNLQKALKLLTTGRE
UniProt P30291: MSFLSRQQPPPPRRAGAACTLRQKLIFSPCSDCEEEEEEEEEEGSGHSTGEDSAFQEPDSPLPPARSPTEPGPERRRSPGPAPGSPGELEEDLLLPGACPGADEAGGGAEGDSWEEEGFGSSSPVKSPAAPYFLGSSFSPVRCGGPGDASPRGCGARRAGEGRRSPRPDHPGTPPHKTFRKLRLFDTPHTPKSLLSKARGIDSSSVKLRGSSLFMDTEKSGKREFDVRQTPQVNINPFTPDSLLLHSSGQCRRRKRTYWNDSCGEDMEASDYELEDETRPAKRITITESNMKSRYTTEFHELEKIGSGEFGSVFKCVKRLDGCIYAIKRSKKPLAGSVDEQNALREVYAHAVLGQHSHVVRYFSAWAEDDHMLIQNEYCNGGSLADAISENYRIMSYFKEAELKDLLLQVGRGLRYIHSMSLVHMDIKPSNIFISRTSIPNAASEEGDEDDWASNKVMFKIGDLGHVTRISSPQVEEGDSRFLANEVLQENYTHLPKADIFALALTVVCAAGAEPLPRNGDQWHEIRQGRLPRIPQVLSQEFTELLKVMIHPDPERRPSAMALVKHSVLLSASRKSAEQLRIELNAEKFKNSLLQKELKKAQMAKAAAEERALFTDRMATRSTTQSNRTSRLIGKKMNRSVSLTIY
UniProt Q96AX1: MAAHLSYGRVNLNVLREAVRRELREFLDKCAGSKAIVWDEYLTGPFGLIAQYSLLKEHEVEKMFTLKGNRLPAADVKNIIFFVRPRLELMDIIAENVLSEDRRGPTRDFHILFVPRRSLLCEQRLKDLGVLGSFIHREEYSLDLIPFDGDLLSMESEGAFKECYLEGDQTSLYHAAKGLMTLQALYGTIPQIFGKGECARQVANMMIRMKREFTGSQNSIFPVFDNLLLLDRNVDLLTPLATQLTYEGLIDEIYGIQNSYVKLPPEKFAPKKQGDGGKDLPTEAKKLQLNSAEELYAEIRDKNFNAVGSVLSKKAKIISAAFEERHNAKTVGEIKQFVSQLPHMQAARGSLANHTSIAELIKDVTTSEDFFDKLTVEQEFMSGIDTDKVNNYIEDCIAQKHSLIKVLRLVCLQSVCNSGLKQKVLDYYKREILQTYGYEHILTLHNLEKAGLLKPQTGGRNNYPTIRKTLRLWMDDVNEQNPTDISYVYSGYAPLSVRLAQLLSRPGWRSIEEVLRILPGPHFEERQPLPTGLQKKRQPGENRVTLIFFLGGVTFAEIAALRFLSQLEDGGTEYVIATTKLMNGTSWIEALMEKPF
UniProt Q5VIR6: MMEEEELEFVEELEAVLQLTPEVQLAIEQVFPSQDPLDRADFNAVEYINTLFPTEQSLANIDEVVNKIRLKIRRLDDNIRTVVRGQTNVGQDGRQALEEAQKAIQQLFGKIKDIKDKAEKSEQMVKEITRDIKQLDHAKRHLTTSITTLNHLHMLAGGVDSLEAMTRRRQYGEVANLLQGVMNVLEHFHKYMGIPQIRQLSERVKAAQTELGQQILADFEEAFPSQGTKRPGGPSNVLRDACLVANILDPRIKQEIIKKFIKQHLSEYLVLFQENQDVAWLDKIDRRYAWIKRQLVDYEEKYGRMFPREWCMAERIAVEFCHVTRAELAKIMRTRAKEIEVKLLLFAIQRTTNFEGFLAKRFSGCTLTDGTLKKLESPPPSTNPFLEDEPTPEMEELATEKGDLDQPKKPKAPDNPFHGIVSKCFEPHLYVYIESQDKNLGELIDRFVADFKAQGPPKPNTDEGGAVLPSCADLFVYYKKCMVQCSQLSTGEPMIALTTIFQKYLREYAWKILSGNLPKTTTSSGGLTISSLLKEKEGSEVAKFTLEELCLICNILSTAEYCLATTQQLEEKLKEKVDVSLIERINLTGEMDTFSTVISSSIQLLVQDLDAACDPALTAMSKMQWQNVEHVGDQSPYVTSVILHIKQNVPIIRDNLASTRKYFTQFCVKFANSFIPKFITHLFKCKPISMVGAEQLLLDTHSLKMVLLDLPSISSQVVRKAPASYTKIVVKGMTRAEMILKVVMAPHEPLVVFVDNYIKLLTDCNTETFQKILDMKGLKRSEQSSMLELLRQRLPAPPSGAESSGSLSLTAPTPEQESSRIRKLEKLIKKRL
UniProt Q9Y2I8: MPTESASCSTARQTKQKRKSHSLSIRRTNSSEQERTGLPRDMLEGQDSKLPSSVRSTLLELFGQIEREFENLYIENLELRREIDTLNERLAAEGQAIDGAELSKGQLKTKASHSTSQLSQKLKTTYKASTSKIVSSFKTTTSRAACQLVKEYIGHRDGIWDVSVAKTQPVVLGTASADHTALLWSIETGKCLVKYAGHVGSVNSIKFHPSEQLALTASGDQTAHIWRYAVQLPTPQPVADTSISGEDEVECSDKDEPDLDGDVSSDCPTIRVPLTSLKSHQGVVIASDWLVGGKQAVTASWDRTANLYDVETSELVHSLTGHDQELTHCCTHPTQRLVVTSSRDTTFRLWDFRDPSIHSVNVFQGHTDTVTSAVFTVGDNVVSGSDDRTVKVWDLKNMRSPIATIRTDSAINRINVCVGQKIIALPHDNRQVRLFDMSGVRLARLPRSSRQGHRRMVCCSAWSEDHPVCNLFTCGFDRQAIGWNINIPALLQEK
UniProt Q9HAD4: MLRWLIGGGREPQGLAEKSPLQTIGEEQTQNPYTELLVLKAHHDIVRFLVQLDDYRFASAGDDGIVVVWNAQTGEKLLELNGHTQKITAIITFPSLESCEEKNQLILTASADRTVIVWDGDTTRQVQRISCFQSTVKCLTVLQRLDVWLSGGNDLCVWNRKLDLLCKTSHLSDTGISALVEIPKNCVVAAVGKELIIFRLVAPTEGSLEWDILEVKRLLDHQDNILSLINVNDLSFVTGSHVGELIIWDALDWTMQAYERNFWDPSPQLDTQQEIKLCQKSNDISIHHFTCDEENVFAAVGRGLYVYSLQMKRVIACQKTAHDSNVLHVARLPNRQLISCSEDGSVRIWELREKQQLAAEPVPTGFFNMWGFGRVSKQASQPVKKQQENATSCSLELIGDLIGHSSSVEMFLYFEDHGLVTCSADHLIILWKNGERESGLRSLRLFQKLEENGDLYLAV
UniProt Q8N1B4: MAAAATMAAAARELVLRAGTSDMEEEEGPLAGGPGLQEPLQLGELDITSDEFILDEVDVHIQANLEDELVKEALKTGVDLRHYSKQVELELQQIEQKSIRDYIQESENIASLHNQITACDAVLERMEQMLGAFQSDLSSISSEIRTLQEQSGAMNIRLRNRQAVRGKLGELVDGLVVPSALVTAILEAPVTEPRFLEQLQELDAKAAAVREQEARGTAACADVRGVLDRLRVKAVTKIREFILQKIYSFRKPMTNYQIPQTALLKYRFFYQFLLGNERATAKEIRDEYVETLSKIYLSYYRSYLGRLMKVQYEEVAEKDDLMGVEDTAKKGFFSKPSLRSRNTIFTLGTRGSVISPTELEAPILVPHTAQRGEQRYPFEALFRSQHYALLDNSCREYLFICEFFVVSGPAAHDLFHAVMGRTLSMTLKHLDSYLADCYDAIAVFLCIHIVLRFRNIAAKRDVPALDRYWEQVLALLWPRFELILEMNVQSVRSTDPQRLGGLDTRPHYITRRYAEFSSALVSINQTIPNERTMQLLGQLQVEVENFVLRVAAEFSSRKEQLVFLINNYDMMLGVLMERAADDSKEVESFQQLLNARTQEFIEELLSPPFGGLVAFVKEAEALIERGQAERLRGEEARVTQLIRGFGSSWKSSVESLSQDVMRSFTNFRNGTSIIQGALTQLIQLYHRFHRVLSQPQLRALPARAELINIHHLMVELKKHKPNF

Key:
Experiment in all cases: log2 fold change, soluble protein after heating vs DMSO (PISA); higher = thermal stabilisation; K562 cells, 10 uM, 30 min; active = over 0.2 and 3.5 SD of the protein, either way, in both replicates (recomputed)
[1] = compound: C#Cc1cccc(Nc2ncnc3cc(OCCOC)c(OCCOC)cc23)c1 [erlotinib]
In short: (§1)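 K562 cells at 2×10^6 cells/mL were treated for 30 min with 10 μM compound, and aliquots were heated for 3 min over 48°C-58°C before pooling. Extraction used PBS with 0.5% NP-40 at 4°C, and soluble protein was the supernatant after 21,000xg for 90 min, measured by TMTpro 16plex LC-MS/MS with channel sums equalised. Thermal stability values, relative to control samples and from duplicates, are log2 fold changes.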

[2] = compound: C/C(=N\NC(=O)C1=CC(=CC=C1)S(=O)(=O)N2CCOCC2)/C3=C(C=CC(=C3)Cl)O
In short: as §1

[3] = compound: C1=CC(=C(C=C1Cl)C2=NC3=NC=CN=C3C(=N2)NC4=CC=NC=C4)F
In short: as §1

[4] = compound: C1=CC(=CC=C1C2=NC3=C(N2)C=C(C=C3)C(=O)N)OC4=CC=C(C=C4)Cl
In short: as §1

[5] = compound: C1=CC2=C(C=CC(=C2)/C=C\3/C(=O)NC(=NCC4=CC=CS4)S3)N=C1
In short: as §1

[6] = compound: C1=CC2=NC=CN=C2C=C1/C=C/3\C(=O)NC(=O)S3
In short: as §1

[7] = compound: C1=CC=C(C=C1)C2=NC(=C(N2)C3=CC=NC=C3)C4=CC(=C(C=C4)Cl)O
In short: as §1

[8] = compound: C1=CC=C2C(=C1)C3=NNC4=CC=CC(=C43)C2=O
In short: as §1

[9] = compound: C1CCN(C1)C(=O)NC2=CC=CC(=C2)NC3=NC=C(C(=N3)NCCC4=CN=CN4)Br
In short: as §1

[10] = compound: C1CN(CCC1(CC2=CC=C(C=C2)Cl)N)C3=NC=NC4=C3C=CN4
In short: as §1

[11] = compound: C1COCCN1CCN2C3=CC=CC=C3N=C2NC(=O)C4=CC(=CC=C4)[N+](=O)[O-] [IRAK-1-4 Inhibitor I]
In short: as §1

[12] = compound: C=CC(=O)N1CCC[C@@H](n2nc(-c3ccc(Oc4ccccc4)cc3)c3c(N)ncnc32)C1 [ibrutinib]
In short: as §1

[13] = compound: CC(=O)c1cnc2ccc(-c3cc(Cl)c(O)c(Cl)c3)nc2c1N[C@H]1CC[C@H](CN(C)C)CC1
In short: as §1

[14] = compound: CC(C)(C)Cn1c(N)nc2ccc(-c3[nH]c(C(C)(C)C)nc3-c3ccc(F)cc3)nc21 [ralimetinib]
In short: as §1

[15] = compound: CC(C)(O)CC(=O)NCCn1ccc2ncnc(Nc3ccc(Oc4cccc(C(F)(F)F)c4)c(Cl)c3)c21
In short: as §1

[16] = compound: CC(C)C1=C2N=C(C=C(N2N=C1)NCC3=CC=CC=C3)NCCCCCCN
In short: as §1

[17] = compound: CC(C)C[C@@H](C=O)NC(=O)[C@H](CC(C)C)NC(=O)[C@H](CC(C)C)NC(=O)OCc1ccccc1
In short: as §1

[18] = compound: CC(C)N(C[C@H]1O[C@@H](n2cnc3c(N)ncnc32)[C@H](O)[C@@H]1O)[C@H]1C[C@@H](CCc2nc3cc(C(C)(C)C)ccc3[nH]2)C1 [pinometostat]
In short: as §1

[19] = compound: CC1=C(C(CC(=O)N1)C2=CC=C(C=C2)C(F)(F)F)C(=O)NC3=C(C=C4C(=C3)C=NN4)F
In short: as §1

[20] = compound: CC1=C(C2=C(C=C1)C(=O)C3=CC=CC=C3N2CCCN)C
In short: as §1

Measured: log2 fold change

WDR59 (UniProt Q6PJI9)
inactive: [1] -0.001 | [2] 0.037 | [3] 0.108 | [4] 0.092 | [5] 0.166 | [6] -0.005 | [7] 0.018 | [8] 0.028 | [9] -0.029 | [10] -0.059 | [11] 0.002 | [12] 0.057 | [13] -0.033 | [14] 0.001 | [15] 0.127 | [16] 0.085 | [17] 0.025 | [18] -0.009 | [19] 0.089 | [20] 0

WDR89 (UniProt Q96FK6)
inactive: [1] -0.014 | [2] -0.018 | [3] 0.029 | [4] 0.017 | [5] -0.03 | [6] 0.067 | [7] -0.046 | [8] -0.014 | [9] 0.016 | [10] 0.06 | [11] 0.052 | [12] -0.015 | [13] -0.008 | [14] -0.075 | [15] -0.034 | [16] 0.081 | [17] -0.008 | [18] -0.036 | [19] 0.009 | [20] 0

VPS13B (UniProt Q7Z7G8)
inactive: [1] 0.032 | [2] 0.024 | [3] 0.028 | [4] 0.009 | [5] 0.048 | [6] -0.025 | [7] 0.032 | [8] -0.017 | [9] -0.052 | [10] 0.058 | [11] 0.05 | [12] -0.013 | [13] -0.016 | [14] -0.042 | [15] -0.06 | [17] 0.121 | [18] 0.007 | [20] 0.015
active: [16] -0.241

WDHD1 (UniProt O75717)
inactive: [1] 0.007 | [2] 0.173 | [3] 0.093 | [4] -0.002 | [5] 0.026 | [6] 0.038 | [7] -0.02 | [8] -0.028 | [9] -0.031 | [10] -0.013 | [11] -0.055 | [12] 0.006 | [13] -0.087 | [14] -0.038 | [15] -0.065 | [16] -0.125 | [17] 0 | [18] -0.03 | [20] -0.063

VTA1 (UniProt Q9NP79)
inactive: [1] -0.05 | [2] 0.124 | [3] 0.07 | [4] 0.018 | [5] -0.007 | [6] 0.025 | [7] -0.02 | [8] 0.029 | [9] 0.01 | [10] -0.024 | [11] -0.02 | [12] -0.001 | [13] -0.013 | [14] -0.009 | [15] -0.074 | [16] -0.12 | [17] -0.007 | [18] -0.041 | [20] 0.068

WEE1 (UniProt P30291)
active: [13] -1.1
inactive: [1] 0.029 | [2] -0.06 | [3] -0.081 | [4] 0.047 | [5] -0.206 | [6] 0.249 | [7] -0.177 | [8] 0.037 | [9] -0.085 | [10] -0.239 | [11] 0.025 | [12] 0.013 | [14] 0.037 | [15] -0.034 | [16] -0.019 | [17] 0.296 | [18] 0.066 | [20] 0.263

WRB (UniProt O00258)
inactive: [1] -0.02 | [2] 0.012 | [3] 0.032 | [4] 0.019 | [5] -0.003 | [6] 0.069 | [7] 0.019 | [8] -0.042 | [9] 0.027 | [10] -0.011 | [11] 0.006 | [12] 0.014 | [13] -0.074 | [14] 0.004 | [15] 0.015 | [16] 0.043 | [17] -0.043 | [18] -0.032 | [20] 0.011

VPS33A (UniProt Q96AX1)
inactive: [1] 0.025 | [2] 0.035 | [3] -0.054 | [4] -0.01 | [5] 0.057 | [6] 0.013 | [7] 0.005 | [8] -0.023 | [9] -0.051 | [10] -0.083 | [11] -0.017 | [12] -0.021 | [13] -0.001 | [14] 0.048 | [15] -0.065 | [17] 0.054 | [18] 0.099 | [20] 0.005
active: [16] -0.299

VPS51 (UniProt Q9UID3)
inactive: [1] -0.003 | [2] 0.123 | [3] -0.02 | [4] -0.01 | [5] -0.002 | [6] 0.035 | [7] -0.014 | [8] -0.016 | [9] -0.029 | [10] -0.02 | [11] 0.016 | [12] -0.015 | [13] 0.009 | [14] 0.024 | [15] -0.042 | [16] -0.115 | [17] 0.001 | [18] 0.05 | [20] 0.105

VPS28 (UniProt Q9UK41)
inactive: [1] -0.072 | [2] 0.031 | [3] 0.27 | [4] -0.011 | [5] 0.009 | [6] 0.023 | [7] 0.009 | [8] 0.001 | [9] -0.091 | [10] -0.043 | [11] -0.052 | [12] 0.058 | [13] -0.018 | [14] -0.051 | [15] -0.13 | [16] -0.189 | [17] 0.027 | [18] 0.059 | [20] 0.04

VPS53 isoform 4 (UniProt Q5VIR6)
inactive: [1] 0.06 | [2] 0.094 | [3] 0.003 | [4] -0.04 | [5] 0.107 | [6] 0.048 | [7] -0.083 | [8] 0.022 | [9] -0.021 | [10] -0.004 | [11] -0.035 | [12] 0.011 | [13] -0.046 | [14] -0.022 | [15] -0.101 | [16] -0.142 | [17] 0.095 | [18] 0.076 | [20] 0.036

WDR37 isoform 2 (UniProt Q9Y2I8)
active: [13] -0.39
inactive: [1] 0.039 | [2] 0.006 | [3] -0.097 | [4] 0.012 | [5] -0.026 | [6] -0.204 | [7] 0.006 | [8] -0.144 | [9] 0.01 | [10] -0.088 | [11] 0.144 | [12] -0.06 | [14] -0.063 | [15] -0.118 | [16] -0.011 | [17] 0.126 | [18] -0.029 | [20] 0.144

WDR61 (UniProt Q9GZS3)
inactive: [1] 0.021 | [2] 0.066 | [3] 0.051 | [4] 0.027 | [5] 0.057 | [6] -0.016 | [7] 0.01 | [8] 0 | [9] 0.077 | [10] 0.026 | [11] 0.037 | [12] -0.015 | [13] -0.057 | [14] -0.049 | [15] 0.008 | [16] -0.016 | [17] -0.009 | [18] 0.028 | [20] 0.004

WDR41 (UniProt Q9HAD4)
active: [16] -0.271
inactive: [1] 0.039 | [2] 0.038 | [3] 0.128 | [4] 0.026 | [5] -0.016 | [6] 0.019 | [7] -0.005 | [8] -0.07 | [9] -0.012 | [10] 0.073 | [11] -0.024 | [12] -0.022 | [13] -0.023 | [14] -0.036 | [15] -0.077 | [17] -0.026 | [18] 0.012 | [20] -0.001

VPS52 (UniProt Q8N1B4)
inactive: [1] 0.019 | [2] 0.048 | [3] -0.029 | [4] 0.067 | [5] 0.032 | [6] 0.031 | [7] 0.004 | [8] 0.079 | [9] -0.033 | [10] -0.051 | [11] -0.057 | [12] 0.068 | [13] 0 | [14] 0.05 | [15] -0.161 | [16] -0.02 | [17] 0.088 | [18] 0.048 | [20] 0.142

VPS8 (UniProt Q8N3P4)
inactive: [1] 0.005 | [2] 0.036 | [3] 0.017 | [4] -0.024 | [5] 0.016 | [6] 0.031 | [7] 0.041 | [8] 0.012 | [9] 0.026 | [10] 0.027 | [11] -0.085 | [12] -0.117 | [13] -0.004 | [14] 0.088 | [15] -0.079 | [16] -0.254 | [17] 0.052 | [18] 0.039 | [20] 0.015
